Experimental data reported in PubChem BioAssay AID540256 (National Center for Advancing Translational Sciences (NCATS), 2011).
Among all 300,000 compounds or so, about 3,700 (1.2%) were called active. Inconclusive results, whose numbers are uncertain, are shown with a selection of clear calls. Calls follow the shape of the full dose curve; tested in HEK293 cells. Where the call is inconclusive, the potency comes from a doubtful curve fit.

Assay: qHTS for Inhibitors of binding or entry into cells for Lassa Virus; also: nearly all actives have a fitted effect of over 50% in size
Conditions: Lassa virus pseudotype entry inhibition, cell reporter; activity change, negative = inhibition: at 37.9 µM (top of the series) unless noted
% is scaled to controls: 0 for no effect and ±100 for the full control effect; potency is read from the fitted curve at half-maximal effect.

Q: For Cc1cc(Br)cc(Br)c1OCC(=O)NNC(=O)CCC(=O)NCc1ccccc1, which activity change, negative = inhibition is on record?
A: The activity change, negative = inhibition was inconclusive: 0.532% [activator] [at 46.1 µM].

Q: Which Potency does the source give for COCCNC(=O)C(OC(=O)CC1Sc2ccccc2NC1=O)c1ccncc1 (configuration not stated) here?
A: The Potency was inconclusive: 5.8 µM [activator, full curve].

Q: For C=CCNc1ncnc2c1ncn2C1OC(CO)C(O)C1O (configuration not stated), which Potency is on record?
A: The Potency was inconclusive: 11.2 µM [inhibitor, partial curve, poor fit].

Q: For Nc1cc(C(=O)OCC(=O)NNC(=O)c2ccccc2)ccc1Cl, which Potency is on record?
A: Its Potency is “inactive”.

Q: With CC1=NNC(=O)C1Cc1ccc(F)cc1 (configuration not stated) as the compound, how does the Potency read?
A: Its Potency is inconclusive: 35.5 µM [inhibitor, partial curve, poor fit].

Q: With O=c1[nH]c(N2CCN(Cc3ccccc3)CC2)nc2c1CCC2 as the compound, how does the Potency read?
A: The Potency was “inactive”.

Q: With Cc1ccc(NC(=O)CCCSc2ccccc2)cc1S(=O)(=O)N1CCOCC1 as the compound, how does the Potency read?
A: Its Potency is inconclusive: 35.5 µM [inhibitor, single point].

Q: For COc1ccccc1NC(=O)Cn1c(=O)c(CNc2ccc(C)cc2)cc2cc3c(cc21)OCCO3, which Potency is on record?
A: Its Potency is “inactive”.

Q: For CCCCCn1c(SCC(=O)CC(=O)OCC)nc2cc(C(=O)N3CCC(C(N)=O)CC3)ccc2c1=O, which Potency is on record?
A: Its Potency is inconclusive: 1.26 µM [inhibitor, single point].

Q: For CCC(CC)c1nnc(NC(=O)COc2ccc3c(c2)OCO3)s1, which Potency is on record?
A: The Potency was “inactive”.

Q: For Cc1ccc(-c2nnc(CSc3nnc(COc4cccc5ccccc45)n3-c3ccccc3)o2)cc1, which Potency is on record?
A: Its Potency is inconclusive: 35.5 µM [inhibitor, single point].

Q: Which Potency does the source give for CCOc1ccc(N2CC(C(=O)Nc3ncccc3C)CC2=O)cc1 (configuration not stated) here?
A: The Potency was inconclusive: 35.5 µM [activator, partial curve, poor fit].

Q: For O=C(NCc1ccccc1Br)c1ccc2c(c1)OCCO2, which Potency is on record?
A: Its Potency is “inactive”.

Q: Which Potency does the source give for Cc1cc(C)c(NC(=O)CC(=O)c2ccccc2)c(Cl)c1 here?
A: Its Potency is “inactive”.

Q: Which Potency does the source give for O=C(/C=C/c1cccc([N+](=O)[O-])c1)NCCSCc1ccc(Cl)cc1Cl here?
A: The Potency was “inactive”.

Q: Which Potency does the source give for COc1ccc(CNc2cccc(F)c2)cc1Br here?
A: Its Potency is “inactive”.

Q: Which Potency does the source give for COC(=O)c1cn(NC(=O)Cc2ccc(Cl)c(Cl)c2)c(=O)c2ccccc12 here?
A: Its Potency is inconclusive: 2.82 µM [inhibitor, partial curve, poor fit].

Q: With Cc1ccc(NC(=O)CC2NCCNC2=O)cc1 (configuration not stated) as the compound, how does the Potency read?
A: Its Potency is “inactive”.

Q: Which Potency does the source give for COc1ccc(-c2noc(-c3ccc(N4CCN(c5ccccc5)CC4)c([N+](=O)[O-])c3)n2)cc1 here?
A: The Potency was “inactive”.

Q: With Cc1ccc(SCc2ccc(C(=O)Nc3cccnc3)cc2)cc1 as the compound, how does the Potency read?
A: Its Potency is inconclusive: 1.12 µM [activator, partial curve].

Q: For Cc1nc2c(c(C)c1CCC(=O)NCc1ccc(Cl)cc1)c(=O)n(C)c(=O)n2C, which Potency is on record?
A: The Potency was inconclusive: 25.1 µM [inhibitor, partial curve, poor fit].

Q: With COc1cccc(OC)c1C(=O)Nc1nc2c(s1)CCc1ccccc1-2 as the compound, how does the Potency read?
A: The Potency was “inactive”.

Q: With O=C(C1CC(c2cccc(Br)c2)=NO1)N1CCc2ccccc2C1 (configuration not stated) as the compound, how does the Potency read?
A: Its Potency is “inactive”.

Q: For CCC(C)n1c(NC(=O)c2ccccc2)c(C#N)c2nc3ccccc3nc21 (configuration not stated), which Potency is on record?
A: Its Potency is inconclusive: 11.2 µM [inhibitor, partial curve].

Q: With CCCOc1ccc(C2CC(=O)Nc3c2c(C)nn3-c2nncc(-c3cccc(OC)c3)n2)cc1OC (configuration not stated) as the compound, how does the Potency read?
A: The Potency was inconclusive: 0.316 µM [activator, full curve, poor fit].

Q: With CCOc1ccc(NC(=O)CN2C(=O)C(C)SC(C)C2=O)cc1 (configuration not stated) as the compound, how does the Potency read?
A: Its Potency is “inactive”.

Q: Which Potency does the source give for CCN(c1ccccc1)S(=O)(=O)c1ccc(Cl)c(NC(=O)Nc2ccc(Cl)cc2C#N)c1 here?
A: Its Potency is inconclusive: 29.1 µM [inhibitor, single point].

Q: With Cc1occc1C(=O)NC1CCCCCCC1 as the compound, how does the Potency read?
A: The Potency was inconclusive: 5.62 µM [activator, single point].

Q: Which Potency does the source give for COc1cccc(C2=CC(c3cc(Br)ccc3F)n3nnnc3N2)c1 (configuration not stated) here?
A: Its Potency is inconclusive: 35.5 µM [inhibitor, partial curve, poor fit].

Q: Which Potency does the source give for CCC(=O)Oc1ccc(C(=O)Nc2ccc([N+](=O)[O-])cc2)cc1 here?
A: Its Potency is “inactive”.

Q: Which Potency does the source give for COc1ccc(S(N)(=O)=O)cc1C(=O)NNC(=O)CN(C)S(=O)(=O)c1ccc(Cl)cc1 here?
A: Its Potency is inconclusive: 1.41 µM [inhibitor, partial curve, poor fit].

Q: For O=C(c1ccc(S(=O)(=O)NCc2ccco2)cc1)N1CCN(Cc2ccccc2F)CC1, which Potency is on record?
A: The Potency was inconclusive: 35.5 µM [inhibitor, single point].

Q: With CC(C)(C)n1ncc2c(=O)n(CC(=O)Nc3ccccc3)cnc21 as the compound, how does the Potency read?
A: Its Potency is “inactive”.

Q: With COc1cc(N=C2C(=O)N3c4c(cccc42)C(C)=CC3(C)C)cc(OC)c1 as the compound, how does the Potency read?
A: The Potency was inconclusive: 29.1 µM [inhibitor, single point].

Q: Which Potency does the source give for CCOC(=O)C(=NCC1CCCO1)NNc1ccccc1Cl (configuration not stated) here?
A: The Potency was “inactive”.

Q: Which Potency does the source give for O=C(NC(=S)NC1CCCCCC1)c1cncc(Br)c1 here?
A: Its Potency is inconclusive: 13 µM [activator, partial curve].

Q: For COCCN(CCOC)Cc1c(C)[nH]c2c(C)c(C)ccc2c1=O, which Potency is on record?
A: The Potency was inconclusive: 0.146 µM [activator, full curve, poor fit].

Q: For O=C(NCc1ccc2c(c1)OCO2)c1c(Cl)cccc1Cl, which Potency is on record?
A: Its Potency is inconclusive: 35.5 µM [inhibitor, single point].

Q: For O=C(CSc1nc(Nc2ccc(F)cc2)c2ccccc2n1)c1ccc(F)cc1, which Potency is on record?
A: The Potency was “inactive”.

Q: With COc1ccc(-c2noc(CCC(=O)Nc3cccnc3)n2)cc1OC as the compound, how does the Potency read?
A: Its Potency is “inactive”.

Q: For COc1cc(Nc2ccccc2Cl)c([N+](=O)[O-])nc1[N+](=O)[O-], which Potency is on record?
A: Its Potency is inconclusive: 10.3 µM [inhibitor, partial curve].

Q: With CC(C)OC(=O)CSc1nnc(Cc2ccccc2)n1Cc1ccco1 as the compound, how does the Potency read?
A: Its Potency is “inactive”.

Q: Which Potency does the source give for COc1cccc(NC(=O)CSc2nnc(-c3cccnc3)o2)c1 here?
A: The Potency was inconclusive: 2.51 µM [inhibitor, single point].

Q: Which Potency does the source give for COc1ccc(OCCCn2cccc2/C=C2/C(=N)N3OC(C)=CC3=NC2=O)cc1 here?
A: The Potency was inconclusive: 25.9 µM [inhibitor, single point].

Q: With Cc1ccc(S(=O)(=O)CCC(=O)OCC(=O)Nc2cc(S(=O)(=O)N3CCOCC3)ccc2Cl)cc1 as the compound, how does the Potency read?
A: The Potency was “inactive”.

Q: For Cc1ccc(C2=N/C(=C\c3ccc(OS(=O)(=O)c4ccc(C)cc4)cc3)C(=O)O2)cc1, which Potency is on record?
A: Its Potency is inconclusive: 1.3 µM [inhibitor, full curve, poor fit].

Q: For COc1cccc(C(=O)COc2ccc(NC(=O)c3cccs3)cc2)c1, which Potency is on record?
A: The Potency was inconclusive: 35.5 µM [inhibitor, single point].

Q: For Cc1csc(=O)n1CCC(=O)OCC(=O)NNC(=O)c1ccccc1, which Potency is on record?
A: Its Potency is inconclusive: 6.31 µM [activator, single point].

Q: For COc1ccc(-n2ncc3c(NCc4ccco4)ncnc32)cc1, which Potency is on record?
A: The Potency was “inactive”.

Q: With CCn1c(=O)cc(OCC(=O)N2CCN(c3ccc(OC)cc3)CC2)c2ccccc21 as the compound, how does the Potency read?
A: The Potency was inconclusive: 2.82 µM [inhibitor, full curve, poor fit].

Q: With O=C(NCc1nc2ccccc2[nH]1)c1c(F)cccc1F as the compound, how does the Potency read?
A: The Potency was inconclusive: 11.2 µM [activator, partial curve].

Q: With Cc1ccc(/C=C/c2onc(C)c2S(=O)(=O)N2CCC(C(=O)N3CCN(c4ccccc4F)CC3)CC2)cc1 as the compound, how does the Potency read?
A: Its Potency is inconclusive: 0.562 µM [activator, full curve, poor fit].

Q: With COc1ccc(C2(C)NC(=O)N(CC(=O)NCc3ccccc3)C2=O)cc1OC (configuration not stated) as the compound, how does the Potency read?
A: The Potency was inconclusive: 3.98 µM [activator, full curve, poor fit].

Q: With COc1ccccc1CC(NC(C)=O)C(=O)NC1CCN(S(=O)(=O)c2ccccc2)CC1 (configuration not stated) as the compound, how does the Potency read?
A: Its Potency is inconclusive: 3.98 µM [inhibitor, single point].

Q: For CCN1C(=O)c2ccccc2S(=O)c2ccc(C(=O)NCc3ccccn3)cc21 (configuration not stated), which Potency is on record?
A: Its Potency is “inactive”.

Q: With COc1ccc(NC(=O)c2cccc(NC(=O)c3ccccc3)c2)c(OC)c1 as the compound, how does the Potency read?
A: Its Potency is inconclusive: 15.8 µM [inhibitor, single point].

Q: With Cc1nn(-c2ccccc2)c(C)c1/C=N/NC(=O)CSc1nnc(-c2ccccc2)n1-c1ccc(Cl)cc1 as the compound, how does the Potency read?
A: Its Potency is inconclusive: 35.5 µM [inhibitor, single point].

Q: For Cc1ccc(NC(=O)CN2CCN(S(=O)(=O)c3cccs3)CC2)cc1S(=O)(=O)N(C)C, which Potency is on record?
A: The Potency was inconclusive: 35.5 µM [inhibitor, single point].

Q: With Cc1noc(C)c1CSCC(=O)NCCN1C(=O)S/C(=C\c2ccccc2F)C1=O as the compound, how does the Potency read?
A: The Potency was inconclusive: 11.2 µM [inhibitor, single point].

Q: Which Potency does the source give for O=C(CCN1C(=O)C2C3C=CC(C3)C2C1=O)NCCc1ccccc1Cl (configuration not stated) here?
A: The Potency was inconclusive: 10 µM [activator, single point].

Q: Which Potency does the source give for Cc1ccc2nc(-c3ccccn3)c(NC3CCCC3)n2c1 here?
A: The Potency was inconclusive: 35.5 µM [inhibitor, single point].

Q: For O=C(O)c1ccc(Nc2nc(-c3cccnc3)cs2)cc1, which Potency is on record?
A: The Potency was inconclusive: 12.6 µM [inhibitor, single point].

Q: With COc1cc(C(C)=O)ccc1OC(=O)CN1C(=O)c2ccccc2C1=O as the compound, how does the Potency read?
A: The Potency was inconclusive: 10 µM [activator, partial curve, poor fit].

Q: With COc1ccc(-c2nnc(SCC(=O)NC3CCCCC3)nc2-c2ccc(OC)cc2)cc1 as the compound, how does the Potency read?
A: The Potency was inconclusive: 5.01 µM [activator, partial curve].

Q: For COc1ccc(C(=O)Nc2ccc3c(c2)CCCN3C(=O)c2cccs2)c(OC)c1, which Potency is on record?
A: The Potency was inconclusive: 35.5 µM [inhibitor, partial curve, poor fit].

Q: For Cc1cc(OCC(=O)Nc2cccc(S(=O)(=O)N3CCCC3)c2)ccc1Cl, which Potency is on record?
A: Its Potency is inconclusive: 14.1 µM [inhibitor, single point].

Q: For Cc1ccc(CNc2ncnc3onc(-c4ccc(F)cc4)c23)cc1, which Potency is on record?
A: Its Potency is inconclusive: 5.01 µM [activator, partial curve, poor fit].
